Source: patent publication US20090076067A1, “PHARMACEUTICAL COMPOSITION COMPRISING AZARHODACYANINE COMPOUND AS ACTIVE INGREDIENT” (priority 2005, published 2009)
For at least one compound, name, drawing or mass did not settle the structure.

Columns and labels:
[1] = test system: Plasmodium Falciparum k1 strain; assay: Chloroquine-resistant tropical malaria protozoa proliferation inhibition screening test; format: cell-based; conditions: 3H-hypoxanthine uptake
Experimental: In this experiment, Plasmodium Falciparum k1 strain protozoa were used. The medium used in the experiment was filter-sterilized RPMI-1640 medium. To the medium human serum was added to achieve 5% concentration. The protozoa was cultured under condition of O2 concentration 3%, CO2 concentration 4%, N2 concentration 93%, and temperature 37° C.
The cultured malaria infected red blood cells were collected by centrifugation, diluted with non-infected red blood cells, to achieve initial infection rate 0.15%. The hematocrit was 2.5%.
To each well in a 96-well culture plate, 200 μL malaria infected culture was added, and either test solution containing test compound at predefined concentration or DMSO having no test compound was added. Each test solution was prepared in duplicate. After 48 hours culture under 37° C., hypoxanthine labeled with radioactive tritium (^3H) of 0.5 μCi was added to each well. After culturing under same condition for 24 hours, the product was collected on a glass fiber filter and washed. The intensity of radiation was measured by Beta plate liquid scintillation counter (Wallac Inc.), to determine malaria protozoa infection rate in test compound samples and control samples.
Using the malaria protozoa infection rate, the proliferation inhibition rate was calculated according to the following equation to determine 50% proliferation inhibition concentration (EC50). […]

[2] = test system: Rat-derived L6 cells (rat skeletal myoblast cell); assay: Rat L6 cell proliferation inhibition test; format: cell-based; conditions: Table 2, 72 hours, Alamar Blue
Experimental: Rat-derived L6 cells (rat skeletal myoblast cell) were used for this test. […] The sample was cultured under CO2 concentration 5% and temperature 37° C. Either the composition of the invention or control was dissolved into DMSO, to prepare test solutions having predefined concentration.
The samples were precultured until logarithmic growth phase was reached. Then the culture was transferred to each well in a 96-well culture plate, and either test solution containing test compound at predefined concentration or DSMO without compound was added. The test solution was duplicated.
The plate was cultured in an incubator for 72 hours, to examine proliferation inhibition activity. The activity was examined as follows. Alamar Blue water solution 10 μL was added to each well, and culture was continued for 2 hours. Next, the culture plate was mounted on a fluorescence microplate reader (Spectramax Gemeni XS; Molecular Devices Corporation, U.S.), and irradiated with excitation wavelength 536 nm to determine fluorescence at 588 nm. The survival rate of L6 cells in the test solution sample and control sample was calculated.
Proliferation inhibition rate(%)={(C−A)/(B−A)}×100
A: Initial cell count B: Cell count in control after 3 days C: Cell count in test solution after 3 days

Compound | EC50 P. falciparum K1 [1] [µg/mL] | EC50 cytotoxicity L6 [2] [µg/mL]
C=CCN1C(=O)/C(=c2/s/c(=C3/C=CC=CN3C)c(=O)n2CC)S/C1=N\c1scc[n+]1C [Compound B-40] | 0.0012 | –
CCn1c(=O)/c(=c2\nc3c(o2)=CC=CN3C)s/c1=C1\S/C(=N\c2scc[n+]2C)N(Cc2ccccc2)C1=O [Compound B-22] | – | 790
